From ChEMBL document CHEMBL1157379, “Transcriptional response of Candida parapsilosis following exposure to farnesol” (2007)
This continues a long series; more values of the same kind are listed elsewhere.

Tests used:
Assay type in all cases: functional
Candida parapsilosis [1] = experiment: Decrease in CGD gene ortholog accession number orf19.3815 expression in Candida parapsilosis CLIB214 at 50 uM after 2 hrs by microarray based transcriptional profiling relative to control
Candida parapsilosis [2] = experiment: Increase in GenBank accession number NP_943649.1 expression in Candida parapsilosis CLIB214 at 50 uM after 2 hrs by microarray based transcriptional profiling relative to control
Candida parapsilosis [3] = experiment: Increase in CGD gene ortholog accession number orf19.5416 expression in Candida parapsilosis CLIB214 at 50 uM after 2 hrs by microarray based transcriptional profiling relative to control
Candida parapsilosis [4] = experiment: Increase in CGD gene ortholog accession number orf19.5333 expression in Candida parapsilosis CLIB214 at 50 uM after 2 hrs by microarray based transcriptional profiling relative to control
Candida parapsilosis [5] = experiment: Increase in ADO1 gene expression in Candida parapsilosis CLIB214 at 50 uM after 2 hrs by microarray based transcriptional profiling relative to control
Candida parapsilosis [6] = experiment: Increase in CGD gene ortholog accession number orf19.1222 expression in Candida parapsilosis CLIB214 at 50 uM after 2 hrs by microarray based transcriptional profiling relative to control
Candida parapsilosis [7] = experiment: Decrease in CGD gene ortholog accession number orf19.478 expression in Candida parapsilosis CLIB214 at 50 uM after 2 hrs by microarray based transcriptional profiling relative to control
Candida parapsilosis [8] = experiment: Increase in CGD gene ortholog accession number orf19.4900 expression in Candida parapsilosis CLIB214 at 50 uM after 2 hrs by microarray based transcriptional profiling relative to control
Candida parapsilosis [9] = experiment: Increase in MCR1 gene expression in Candida parapsilosis CLIB214 at 50 uM after 2 hrs by microarray based transcriptional profiling relative to control
Candida parapsilosis [10] = experiment: Decrease in PDX3 gene expression in Candida parapsilosis CLIB214 at 50 uM after 2 hrs by microarray based transcriptional profiling relative to control
Candida parapsilosis [11] = experiment: Decrease in CGD gene ortholog accession number orf19.7387 expression in Candida parapsilosis CLIB214 at 50 uM after 2 hrs by microarray based transcriptional profiling relative to control
Candida parapsilosis [12] = experiment: Increase in CGD gene ortholog accession number orf19.6578 expression in Candida parapsilosis CLIB214 at 50 uM after 2 hrs by microarray based transcriptional profiling relative to control
Candida parapsilosis [13] = experiment: Increase in GenBank accession number NP_943647.1 expression in Candida parapsilosis CLIB214 at 50 uM after 2 hrs by microarray based transcriptional profiling relative to control
Candida parapsilosis [14] = experiment: Increase in HTS1 gene expression in Candida parapsilosis CLIB214 at 50 uM after 2 hrs by microarray based transcriptional profiling relative to control
Candida parapsilosis [15] = experiment: Increase in CGD gene ortholog accession number orf19.5910 expression in Candida parapsilosis CLIB214 at 50 uM after 2 hrs by microarray based transcriptional profiling relative to control
Candida parapsilosis [16] = experiment: Increase in CGD gene ortholog accession number orf19.5602 expression in Candida parapsilosis CLIB214 at 50 uM after 2 hrs by microarray based transcriptional profiling relative to control
Candida parapsilosis [17] = experiment: Increase in CGD gene ortholog accession number orf19.188 expression in Candida parapsilosis CLIB214 at 50 uM after 2 hrs by microarray based transcriptional profiling relative to control
Candida parapsilosis [18] = experiment: Increase in FMP45 gene expression in Candida parapsilosis CLIB214 at 50 uM after 2 hrs by microarray based transcriptional profiling relative to control
Candida parapsilosis [19] = experiment: Increase in CGD gene ortholog accession number orf19.72 expression in Candida parapsilosis CLIB214 at 50 uM after 2 hrs by microarray based transcriptional profiling relative to control
Candida parapsilosis [20] = experiment: Increase in CGD gene ortholog accession number orf19.6902 expression in Candida parapsilosis CLIB214 at 50 uM after 2 hrs by microarray based transcriptional profiling relative to control
Candida parapsilosis [21] = experiment: Increase in UGT51C1 gene expression in Candida parapsilosis CLIB214 at 50 uM after 2 hrs by microarray based transcriptional profiling relative to control
Candida parapsilosis [22] = experiment: Decrease in CGD gene ortholog accession number orf19.3332 expression in Candida parapsilosis CLIB214 at 50 uM after 2 hrs by microarray based transcriptional profiling relative to control
Candida parapsilosis [23] = experiment: Decrease in CGD gene ortholog accession number orf19.7010 expression in Candida parapsilosis CLIB214 at 50 uM after 2 hrs by microarray based transcriptional profiling relative to control
Candida parapsilosis [24] = experiment: Decrease in CGD gene ortholog accession number orf19.1482 expression in Candida parapsilosis CLIB214 at 50 uM after 2 hrs by microarray based transcriptional profiling relative to control
Candida parapsilosis [25] = experiment: Increase in CGD gene ortholog accession number orf19.2564 expression in Candida parapsilosis CLIB214 at 50 uM after 2 hrs by microarray based transcriptional profiling relative to control
Candida parapsilosis [26] = experiment: Increase in RPS22A gene expression in Candida parapsilosis CLIB214 at 50 uM after 2 hrs by microarray based transcriptional profiling relative to control
Candida parapsilosis [27] = experiment: Decrease in CGD gene ortholog accession number orf19.804 expression in Candida parapsilosis CLIB214 at 50 uM after 2 hrs by microarray based transcriptional profiling relative to control
Candida parapsilosis [28] = experiment: Decrease in CGD gene ortholog accession number orf19.1531 expression in Candida parapsilosis CLIB214 at 50 uM after 2 hrs by microarray based transcriptional profiling relative to control
Candida parapsilosis [29] = experiment: Decrease in CGD gene ortholog accession number orf19.4851 expression in Candida parapsilosis CLIB214 at 50 uM after 2 hrs by microarray based transcriptional profiling relative to control
Candida parapsilosis [30] = experiment: Increase in GDB1 gene expression in Candida parapsilosis CLIB214 at 50 uM after 2 hrs by microarray based transcriptional profiling relative to control
Candida parapsilosis [31] = experiment: Decrease in RIM13 gene expression in Candida parapsilosis CLIB214 at 50 uM after 2 hrs by microarray based transcriptional profiling relative to control
Candida parapsilosis [32] = experiment: Increase in CGD gene ortholog accession number orf19.2346 expression in Candida parapsilosis CLIB214 at 50 uM after 2 hrs by microarray based transcriptional profiling relative to control
Candida parapsilosis [33] = experiment: Increase in ICL1 gene expression in Candida parapsilosis CLIB214 at 50 uM after 2 hrs by microarray based transcriptional profiling relative to control
Candida parapsilosis [34] = experiment: Increase in CGD gene ortholog accession number orf19.2538 expression in Candida parapsilosis CLIB214 at 50 uM after 2 hrs by microarray based transcriptional profiling relative to control
Candida parapsilosis [35] = experiment: Increase in SMF12 gene expression in Candida parapsilosis CLIB214 at 50 uM after 2 hrs by microarray based transcriptional profiling relative to control
Candida parapsilosis [36] = experiment: Increase in CGD gene ortholog accession number orf19.1642 expression in Candida parapsilosis CLIB214 at 50 uM after 2 hrs by microarray based transcriptional profiling relative to control

CC(C)=CCC/C(C)=C/CC/C(C)=C/CO [FARNESOL]
fold change (FC) (Candida parapsilosis [1]): 1.64 | fold change (FC) (Candida parapsilosis [2]): 2.61 | fold change (FC) (Candida parapsilosis [3]): 1.54 | fold change (FC) (Candida parapsilosis [4]): 1.57 | fold change (FC) (Candida parapsilosis [5]): 1.85 | fold change (FC) (Candida parapsilosis [6]): 1.68 | fold change (FC) (Candida parapsilosis [7]): 1.56 | fold change (FC) (Candida parapsilosis [8]): 1.65 | fold change (FC) (Candida parapsilosis [9]): 2.55 | fold change (FC) (Candida parapsilosis [10]): 2.12 | fold change (FC) (Candida parapsilosis [11]): 1.87 | fold change (FC) (Candida parapsilosis [12]): 1.76 | fold change (FC) (Candida parapsilosis [13]): 1.62 | fold change (FC) (Candida parapsilosis [14]): 2.19 | fold change (FC) (Candida parapsilosis [15]): 1.69 | fold change (FC) (Candida parapsilosis [16]): 1.74 | fold change (FC) (Candida parapsilosis [17]): 1.55 | fold change (FC) (Candida parapsilosis [18]): 1.64 | fold change (FC) (Candida parapsilosis [19]): 1.79 | fold change (FC) (Candida parapsilosis [20]): 1.78 | fold change (FC) (Candida parapsilosis [21]): 1.51 | fold change (FC) (Candida parapsilosis [22]): 2.2 | fold change (FC) (Candida parapsilosis [23]): 2 | fold change (FC) (Candida parapsilosis [24]): 1.5 | fold change (FC) (Candida parapsilosis [25]): 2.39 | fold change (FC) (Candida parapsilosis [26]): 2.5 | fold change (FC) (Candida parapsilosis [27]): 1.6 | fold change (FC) (Candida parapsilosis [28]): 1.72 | fold change (FC) (Candida parapsilosis [29]): 1.78 | fold change (FC) (Candida parapsilosis [30]): 1.58 | fold change (FC) (Candida parapsilosis [31]): 1.9 | fold change (FC) (Candida parapsilosis [32]): 1.59 | fold change (FC) (Candida parapsilosis [33]): 1.66 | fold change (FC) (Candida parapsilosis [34]): 1.62 | fold change (FC) (Candida parapsilosis [35]): 1.65 | fold change (FC) (Candida parapsilosis [36]): 1.82
